We go through one substance from article PMC12463022.

Chains of the proteins cited; added tags and fusions are not shown.
UniProt P02763: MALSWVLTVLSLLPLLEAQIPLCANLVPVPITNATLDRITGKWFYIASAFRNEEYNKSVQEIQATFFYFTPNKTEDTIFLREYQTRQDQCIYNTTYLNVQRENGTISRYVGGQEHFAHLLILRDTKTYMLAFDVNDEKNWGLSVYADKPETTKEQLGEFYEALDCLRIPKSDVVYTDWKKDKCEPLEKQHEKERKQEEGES
UniProt P08670: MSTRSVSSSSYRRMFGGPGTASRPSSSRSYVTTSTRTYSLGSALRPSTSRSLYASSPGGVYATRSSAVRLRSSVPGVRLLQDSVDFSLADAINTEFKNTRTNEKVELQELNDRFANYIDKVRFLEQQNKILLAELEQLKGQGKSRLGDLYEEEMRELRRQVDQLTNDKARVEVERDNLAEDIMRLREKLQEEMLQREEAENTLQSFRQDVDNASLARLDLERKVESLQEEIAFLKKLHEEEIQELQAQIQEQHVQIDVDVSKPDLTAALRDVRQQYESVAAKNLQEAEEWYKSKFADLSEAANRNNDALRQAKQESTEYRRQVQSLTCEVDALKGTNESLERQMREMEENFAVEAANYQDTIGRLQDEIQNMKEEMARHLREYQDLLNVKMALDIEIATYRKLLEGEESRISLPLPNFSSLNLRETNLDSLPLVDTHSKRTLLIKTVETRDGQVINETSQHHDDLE

The test deals with orosomucoid 1 (ORM1)–Flag (human) (UniProt P02763). Nature of the test: affinity purification with mass spectrometry; coIP from lysate of cells transfected with ORM1-Flag for 24 h (cell line not stated), primary antibody overnight at 4 °C, Protein G-Agarose; SDS-PAGE, coomassie brilliant blue; band around 50 kDa that differed between IgG and IP lane cut, trypsin, LC-MS/MS.

These are yes or no findings as the source states them, for the method shown. Binding seen in cells or lysates may run through a third protein. Here binding means that the protein was enriched with, or labelled near, the bait; the list need not be complete.

As to “vimentin (VIM) (from UniProt P08670 1-466)”, the binding entry was “binds”.
